Source: PMC9245577
These are yes or no findings as the source states them, for the method shown. Binding can be weak; no strength is given.

By UniProt entry, the sequences of proteins in these tests, tags left out. Where a name states a change or a piece, a line headed by the entry shows the natural chain unless it says otherwise.
UniProt Q43128: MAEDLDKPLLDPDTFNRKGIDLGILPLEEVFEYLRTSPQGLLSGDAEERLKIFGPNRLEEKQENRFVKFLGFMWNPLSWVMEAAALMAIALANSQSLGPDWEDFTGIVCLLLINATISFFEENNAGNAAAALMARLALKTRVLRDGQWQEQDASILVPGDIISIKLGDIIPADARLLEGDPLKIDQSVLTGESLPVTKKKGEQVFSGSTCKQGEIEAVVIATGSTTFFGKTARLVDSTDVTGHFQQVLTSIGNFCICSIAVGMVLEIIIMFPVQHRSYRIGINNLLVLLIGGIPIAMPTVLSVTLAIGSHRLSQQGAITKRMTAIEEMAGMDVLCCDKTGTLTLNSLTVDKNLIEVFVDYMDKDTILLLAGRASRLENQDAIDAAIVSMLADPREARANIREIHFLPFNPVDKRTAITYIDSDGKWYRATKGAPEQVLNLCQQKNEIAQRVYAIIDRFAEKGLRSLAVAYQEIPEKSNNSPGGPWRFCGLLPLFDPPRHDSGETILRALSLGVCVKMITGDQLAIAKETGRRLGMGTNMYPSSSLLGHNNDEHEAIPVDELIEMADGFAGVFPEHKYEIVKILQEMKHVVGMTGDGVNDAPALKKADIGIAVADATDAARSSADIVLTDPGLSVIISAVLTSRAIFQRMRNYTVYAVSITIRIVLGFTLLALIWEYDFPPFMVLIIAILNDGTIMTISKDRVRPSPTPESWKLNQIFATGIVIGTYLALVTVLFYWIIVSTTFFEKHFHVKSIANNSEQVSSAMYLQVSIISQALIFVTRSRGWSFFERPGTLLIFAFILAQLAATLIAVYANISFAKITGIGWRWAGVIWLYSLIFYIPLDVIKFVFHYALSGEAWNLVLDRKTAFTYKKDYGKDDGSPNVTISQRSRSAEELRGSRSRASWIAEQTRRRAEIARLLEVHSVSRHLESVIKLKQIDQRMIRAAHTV
UniProt P20649: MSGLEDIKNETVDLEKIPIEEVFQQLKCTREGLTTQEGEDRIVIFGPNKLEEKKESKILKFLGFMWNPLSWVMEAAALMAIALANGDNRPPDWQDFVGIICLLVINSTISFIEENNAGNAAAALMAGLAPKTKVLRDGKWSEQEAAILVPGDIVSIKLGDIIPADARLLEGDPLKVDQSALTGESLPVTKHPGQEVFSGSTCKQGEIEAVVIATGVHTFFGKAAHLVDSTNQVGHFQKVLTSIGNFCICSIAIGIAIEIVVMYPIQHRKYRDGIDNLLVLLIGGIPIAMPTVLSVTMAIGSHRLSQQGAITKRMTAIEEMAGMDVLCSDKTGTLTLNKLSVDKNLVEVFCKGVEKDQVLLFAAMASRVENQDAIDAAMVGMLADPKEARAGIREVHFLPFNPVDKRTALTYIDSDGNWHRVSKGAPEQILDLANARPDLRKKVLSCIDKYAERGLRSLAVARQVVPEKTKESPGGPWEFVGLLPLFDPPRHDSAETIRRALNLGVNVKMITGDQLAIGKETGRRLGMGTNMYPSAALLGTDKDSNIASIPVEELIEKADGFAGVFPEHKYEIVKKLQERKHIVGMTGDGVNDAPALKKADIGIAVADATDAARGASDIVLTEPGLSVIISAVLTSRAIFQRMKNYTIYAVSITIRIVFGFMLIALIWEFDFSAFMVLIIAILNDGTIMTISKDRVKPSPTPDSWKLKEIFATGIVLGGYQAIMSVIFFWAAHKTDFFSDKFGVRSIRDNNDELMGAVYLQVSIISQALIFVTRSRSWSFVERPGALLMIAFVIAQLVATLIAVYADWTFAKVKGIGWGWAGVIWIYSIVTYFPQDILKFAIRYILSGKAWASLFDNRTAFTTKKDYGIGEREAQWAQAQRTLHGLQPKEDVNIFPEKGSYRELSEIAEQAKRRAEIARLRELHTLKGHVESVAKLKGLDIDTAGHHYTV
UniProt Q42556: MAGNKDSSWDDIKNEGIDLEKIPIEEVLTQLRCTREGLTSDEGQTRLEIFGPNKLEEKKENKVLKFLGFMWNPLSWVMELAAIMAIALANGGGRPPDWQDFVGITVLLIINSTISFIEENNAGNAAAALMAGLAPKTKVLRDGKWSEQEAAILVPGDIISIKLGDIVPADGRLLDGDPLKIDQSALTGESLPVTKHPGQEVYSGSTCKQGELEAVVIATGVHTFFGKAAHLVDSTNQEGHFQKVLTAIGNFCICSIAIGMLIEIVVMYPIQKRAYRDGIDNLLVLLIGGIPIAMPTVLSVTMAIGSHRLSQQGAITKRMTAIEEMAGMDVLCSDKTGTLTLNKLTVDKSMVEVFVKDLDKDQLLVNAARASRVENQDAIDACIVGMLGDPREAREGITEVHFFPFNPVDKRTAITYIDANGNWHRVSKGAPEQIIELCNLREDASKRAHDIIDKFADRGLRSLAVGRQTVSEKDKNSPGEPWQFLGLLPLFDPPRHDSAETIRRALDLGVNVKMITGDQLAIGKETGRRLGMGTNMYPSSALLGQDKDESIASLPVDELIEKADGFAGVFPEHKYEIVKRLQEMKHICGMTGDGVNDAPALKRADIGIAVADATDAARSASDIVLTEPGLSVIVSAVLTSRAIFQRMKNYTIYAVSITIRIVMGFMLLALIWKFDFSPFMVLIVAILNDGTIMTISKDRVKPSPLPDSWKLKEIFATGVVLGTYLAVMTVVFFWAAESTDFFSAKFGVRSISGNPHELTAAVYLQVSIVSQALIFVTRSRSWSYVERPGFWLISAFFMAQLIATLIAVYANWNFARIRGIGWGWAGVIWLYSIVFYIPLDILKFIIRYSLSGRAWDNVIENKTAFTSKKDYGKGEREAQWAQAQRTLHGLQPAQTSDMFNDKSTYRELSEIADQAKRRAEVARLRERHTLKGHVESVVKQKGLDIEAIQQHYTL
UniProt P20431: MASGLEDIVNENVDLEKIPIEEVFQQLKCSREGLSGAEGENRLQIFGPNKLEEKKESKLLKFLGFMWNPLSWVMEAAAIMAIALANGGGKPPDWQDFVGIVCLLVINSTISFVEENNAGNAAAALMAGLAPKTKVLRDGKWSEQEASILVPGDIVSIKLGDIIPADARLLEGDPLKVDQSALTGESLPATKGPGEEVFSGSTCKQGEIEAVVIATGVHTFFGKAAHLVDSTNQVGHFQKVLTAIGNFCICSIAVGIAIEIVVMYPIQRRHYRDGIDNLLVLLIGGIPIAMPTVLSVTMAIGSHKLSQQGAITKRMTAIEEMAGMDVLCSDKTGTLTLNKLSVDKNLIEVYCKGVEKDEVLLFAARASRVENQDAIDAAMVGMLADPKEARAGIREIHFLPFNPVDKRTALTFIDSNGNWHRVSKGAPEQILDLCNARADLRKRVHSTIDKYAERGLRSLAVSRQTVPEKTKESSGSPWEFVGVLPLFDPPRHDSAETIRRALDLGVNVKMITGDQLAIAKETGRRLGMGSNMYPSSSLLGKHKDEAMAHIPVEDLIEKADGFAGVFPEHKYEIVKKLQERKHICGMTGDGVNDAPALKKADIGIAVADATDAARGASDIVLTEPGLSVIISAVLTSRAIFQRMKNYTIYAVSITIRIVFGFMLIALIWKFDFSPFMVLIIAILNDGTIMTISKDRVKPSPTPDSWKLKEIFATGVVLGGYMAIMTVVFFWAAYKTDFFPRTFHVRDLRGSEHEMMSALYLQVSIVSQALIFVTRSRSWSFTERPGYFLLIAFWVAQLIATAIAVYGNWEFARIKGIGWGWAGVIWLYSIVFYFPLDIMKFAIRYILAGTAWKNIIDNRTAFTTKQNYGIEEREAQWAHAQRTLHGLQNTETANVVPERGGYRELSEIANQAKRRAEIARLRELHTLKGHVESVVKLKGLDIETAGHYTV
UniProt P19456: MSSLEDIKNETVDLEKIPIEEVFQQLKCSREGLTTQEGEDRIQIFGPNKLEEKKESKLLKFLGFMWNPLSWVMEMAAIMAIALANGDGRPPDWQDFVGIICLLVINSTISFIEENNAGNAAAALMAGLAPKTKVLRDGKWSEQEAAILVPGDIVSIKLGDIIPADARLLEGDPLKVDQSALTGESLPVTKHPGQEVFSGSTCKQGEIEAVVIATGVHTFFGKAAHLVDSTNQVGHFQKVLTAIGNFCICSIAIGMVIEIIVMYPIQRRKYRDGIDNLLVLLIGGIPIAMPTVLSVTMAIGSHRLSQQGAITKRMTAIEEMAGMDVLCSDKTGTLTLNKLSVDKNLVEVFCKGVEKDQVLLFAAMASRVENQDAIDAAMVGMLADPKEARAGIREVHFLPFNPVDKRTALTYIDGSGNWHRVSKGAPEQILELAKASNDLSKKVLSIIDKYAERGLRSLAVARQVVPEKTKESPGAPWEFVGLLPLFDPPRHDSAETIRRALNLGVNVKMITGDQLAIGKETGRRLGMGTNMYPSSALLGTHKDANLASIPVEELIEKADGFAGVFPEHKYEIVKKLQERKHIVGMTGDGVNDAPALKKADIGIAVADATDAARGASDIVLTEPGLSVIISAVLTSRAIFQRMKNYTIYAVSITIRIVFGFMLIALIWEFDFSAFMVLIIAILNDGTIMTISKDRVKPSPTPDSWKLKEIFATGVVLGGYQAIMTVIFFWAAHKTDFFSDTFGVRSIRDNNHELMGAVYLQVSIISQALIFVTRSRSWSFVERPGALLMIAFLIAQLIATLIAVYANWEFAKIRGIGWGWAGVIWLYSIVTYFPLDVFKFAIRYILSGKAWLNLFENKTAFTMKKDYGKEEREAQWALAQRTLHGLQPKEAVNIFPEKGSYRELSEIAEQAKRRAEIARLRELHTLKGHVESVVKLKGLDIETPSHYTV
UniProt Q9SUA6: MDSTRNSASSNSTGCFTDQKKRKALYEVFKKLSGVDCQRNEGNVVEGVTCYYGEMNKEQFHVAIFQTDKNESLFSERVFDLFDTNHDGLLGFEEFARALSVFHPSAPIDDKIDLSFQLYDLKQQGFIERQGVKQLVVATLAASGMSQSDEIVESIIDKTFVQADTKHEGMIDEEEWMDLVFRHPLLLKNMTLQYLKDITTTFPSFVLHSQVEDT

How the values were obtained:
Test in all cases: two-hybrid; yeast strain AH109; C termini of AHAs in pGBKT7 (BD), full-length SCaBP3 in pGADT7; serial 10-fold dilutions spotted on SD-LW, SD-HLW and SD-HLW + 1 mM 3-AT, 28°C, 3-5 d
[1] = target: C terminus of the PM H+-ATPase AHA10 (Arabidopsis thaliana) (UniProt Q43128)
[2] = target: C terminus of the PM H+-ATPase AHA1 (Arabidopsis thaliana) (UniProt P20649)
[3] = target: C terminus of the PM H+-ATPase AHA9 (Arabidopsis thaliana) (UniProt Q42556)
[4] = target: C terminus of the PM H+-ATPase AHA3 (Arabidopsis thaliana) (UniProt P20431)
[5] = substrate: C terminus of the PM H+-ATPase AHA2 (Arabidopsis thaliana) (UniProt P19456)

| binding [1] | binding [2] | binding [3] | binding [4] | binding [5] | Molecule |
| --- | --- | --- | --- | --- | --- |
| binds | binds | binds | binds |  | SOS3-LIKE CALCIUM BINDING PROTEIN3 (SCaBP3) (from UniProt Q9SUA6 1-214) |
|  |  |  |  | binds | PKS5 (protein, UniProt O22932 1-435) MPEIEIAAGSGDNNDALFGKYELGKLLGCGAFAKVFHARDRRTGQSVAVKILNKKKLLTNPALANNIKREISIMRRLSHPNIVKLHEVMATKSKIFFAMEFVKGGELFNKISKHGRLSEDLSRRYFQQLISAVGYCHARGVYHRDLKPENLLIDENGNLKVSDFGLSALTDQIRPDGLLHTLCGTPAYVAPEILSKKGYEGAKVDVWSCGIVLFVLVAGYLPFNDPNVMNMYKKIYKGEYRFPRWMSPDLKRFVSRLLDINPETRITIDEILKDPWFVRGGFKQIKFHDDEIEDQKVESSLEAVKSLNAFDLISYSSGLDLSGLFAGCSNSSGESERFLSEKSPEMLAEEVEGFAREENLRMKKKKEEEYGFEMEGQNGKFGIGICISRLNDLLVVVEARRRGGDGDCYKEMWNGKLRVQLIRVCDQTSSTNAAI |
